Measured values published in patent publication US20100242126A1.
No constants are given. Whether binding was seen depends on the method and setting. Binding seen in cells or lysates may run through a third protein. Some results given as binding are weak or reduced against the parent protein; the word gives no strength. For some of these results: Sequences can lack the tags named with a protein.

Amino acid sequences for entries named in this document (tags omitted). A change or cut given only in a name is not applied to a line headed by its entry. Chains listed by the source or under a name are the forms on record and can include a tag or linker. Residues count along the entry.
Myc-tagged EphA4 (wild-type, from B6 mouse brain cDNA, pcDNA3 with Igk-Myc-tag at the N-terminus) (Q03137, residues 20-986): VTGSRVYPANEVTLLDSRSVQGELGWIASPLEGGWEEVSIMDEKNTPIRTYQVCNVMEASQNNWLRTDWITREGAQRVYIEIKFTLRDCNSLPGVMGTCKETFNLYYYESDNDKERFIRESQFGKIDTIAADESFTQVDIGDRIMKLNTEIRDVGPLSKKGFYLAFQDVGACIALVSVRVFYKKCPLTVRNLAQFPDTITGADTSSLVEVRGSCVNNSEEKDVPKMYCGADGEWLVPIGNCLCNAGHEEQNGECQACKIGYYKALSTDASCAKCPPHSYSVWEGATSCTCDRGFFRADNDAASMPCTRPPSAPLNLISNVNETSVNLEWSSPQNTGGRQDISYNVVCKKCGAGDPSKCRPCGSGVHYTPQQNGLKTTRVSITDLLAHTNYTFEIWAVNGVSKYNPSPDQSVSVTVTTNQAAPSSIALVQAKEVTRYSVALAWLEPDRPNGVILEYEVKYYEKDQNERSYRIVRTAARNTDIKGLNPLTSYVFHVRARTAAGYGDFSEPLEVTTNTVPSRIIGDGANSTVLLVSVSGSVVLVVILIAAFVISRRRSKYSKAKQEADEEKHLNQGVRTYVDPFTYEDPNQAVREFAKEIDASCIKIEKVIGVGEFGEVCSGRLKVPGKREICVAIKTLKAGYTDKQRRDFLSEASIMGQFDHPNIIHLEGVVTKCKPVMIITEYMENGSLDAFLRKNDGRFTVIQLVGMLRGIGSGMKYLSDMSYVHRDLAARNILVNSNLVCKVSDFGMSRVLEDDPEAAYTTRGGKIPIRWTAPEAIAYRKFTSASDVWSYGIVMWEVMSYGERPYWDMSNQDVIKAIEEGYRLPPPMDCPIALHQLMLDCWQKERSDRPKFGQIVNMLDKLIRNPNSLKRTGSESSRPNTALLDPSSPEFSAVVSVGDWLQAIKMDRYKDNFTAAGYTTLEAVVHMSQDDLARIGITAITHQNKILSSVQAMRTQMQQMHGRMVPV
Myc-tagged EphA4^FF (Y596F/Y602F) mutant (Q03137, form named): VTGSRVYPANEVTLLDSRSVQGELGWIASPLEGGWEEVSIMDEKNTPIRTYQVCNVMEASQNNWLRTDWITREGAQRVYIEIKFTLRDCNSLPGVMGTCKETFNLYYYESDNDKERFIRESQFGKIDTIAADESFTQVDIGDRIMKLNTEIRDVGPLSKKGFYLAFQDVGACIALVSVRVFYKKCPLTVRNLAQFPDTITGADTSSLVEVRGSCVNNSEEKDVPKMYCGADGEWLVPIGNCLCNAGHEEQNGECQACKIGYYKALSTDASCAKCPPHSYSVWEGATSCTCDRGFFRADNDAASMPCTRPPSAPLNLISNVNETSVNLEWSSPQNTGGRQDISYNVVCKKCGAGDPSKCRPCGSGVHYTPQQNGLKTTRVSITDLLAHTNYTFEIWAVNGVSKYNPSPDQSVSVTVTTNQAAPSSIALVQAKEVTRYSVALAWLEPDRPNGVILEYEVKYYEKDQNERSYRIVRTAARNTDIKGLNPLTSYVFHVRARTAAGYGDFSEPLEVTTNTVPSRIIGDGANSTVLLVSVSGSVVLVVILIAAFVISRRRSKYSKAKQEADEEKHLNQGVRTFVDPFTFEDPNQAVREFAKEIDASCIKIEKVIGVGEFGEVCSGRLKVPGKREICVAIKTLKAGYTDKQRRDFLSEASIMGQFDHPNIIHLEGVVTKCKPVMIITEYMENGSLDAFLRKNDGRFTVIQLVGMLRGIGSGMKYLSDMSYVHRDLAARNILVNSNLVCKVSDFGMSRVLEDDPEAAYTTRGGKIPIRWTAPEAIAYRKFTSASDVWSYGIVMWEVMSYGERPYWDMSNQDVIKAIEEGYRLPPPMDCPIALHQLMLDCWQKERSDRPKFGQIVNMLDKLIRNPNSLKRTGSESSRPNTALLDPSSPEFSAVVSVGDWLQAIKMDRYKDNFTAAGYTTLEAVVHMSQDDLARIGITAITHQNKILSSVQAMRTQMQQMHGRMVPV

Tests used:
[1] = molecular target: Myc-tagged EphA4 (wild-type, from B6 mouse brain cDNA, pcDNA3 with Igk-Myc-tag at the N-terminus) (mouse) (UniProt Q03137); assay: co-precipitation with ephrinA1-Fc from transfected 293T lysates, immunoblot
[2] = molecular target: Myc-tagged EphA4^FF (Y596F/Y602F) mutant (mouse) (UniProt Q03137); assay: as above
[3] = molecular target: Myc-tagged EphA4 (wild-type, from B6 mouse brain cDNA, pcDNA3 with Igk-Myc-tag at the N-terminus) (mouse) (UniProt Q03137); assay: co-precipitation with ephrinA1-Fc from transfected 293T lysates, anti-HA / anti-Myc immunoblot
[4] = molecular target: Myc-tagged EphA4^FF (Y596F/Y602F) mutant (mouse) (UniProt Q03137); assay: as above
[5] = molecular target: endogenous EphA4 of wild-type mouse cortex (mouse) (UniProt Q03137); assay: co-immunoprecipitation with anti-α2-chimerin antibody from P3 mouse cortex lysates, immunoblot
[6] = molecular target: endogenous EphA4 of wild-type mouse cortex (mouse) (UniProt Q03137); assay: co-immunoprecipitation with α-chimerin-specific antibody from developing mouse motor cortex lysates, immunoblot
[7] = molecular target: Myc-tagged EphA4 (wild-type, from B6 mouse brain cDNA, pcDNA3 with Igk-Myc-tag at the N-terminus) (mouse) (UniProt Q03137); assay: GST-fusion pull-down from lysate of HEK293T cells with Myc-EphA4, anti-Myc immunoblot

binding [1] | binding [2] | binding [3] | binding [4] | binding [5] | binding [6] | binding [7] | Binder
binds | binds | binds | binds | – | – | – | HA-tagged wild-type α1-chimerin (pEF-BOS, HA-tag at the N-terminus) (protein, mouse, UniProt Q91V57-2 1-334, looked up, not shown: small tags and cut ends) MPSKESWSGRKANRATVHKAKPEGRQQGLLIAALGMKLGSQKSSVTIWQPLKLFAYSQLTSLVRRATLKENEQIPKYEKVHNFKVHTFRGPHWCEYCANFMWGLIAQGVKCADCGLNVHKQCSKMVPNDCKPDLKHVKKVYSCDLTTLVKAHITKRPMVVDMCIREIESRGLNSEGLYRVSGFSDLIEDVKMAFDRDGEKADISVNMYEDINIITGALKLYFRDLPIPLITYDAYPKFIESAKIMDPDEQLETLHEALRSLPPAHCETLRYLMAHLKRVTLHEKENLMSAENLGIVFGPTLMRSPELDPMAALNDIRYQRLVVELLIKNEDILF
– | – | – | – | binds | binds | – | endogenous α2-chimerin of wild-type mouse brain and spinal cord (protein, UniProt Q91V57 2-459, looked up) ALTLFDTDEYRPPVWKSYLYQLQQEAPHPRRVTCTCEVENRPKYYGREYHGMISREETDQLLSVAEGSYLIRESQRQPGTYTLALRFGSQTRNFRLYYDGKHFVGEKRFESIHDLVTDGLITLYIETKAAEYIAKMTINPIYEHIGYTTLNREPAYKQHMAVLKETHDEKEATGQDGVSEKRLTSLVRRATLKENEQIPKYEKVHNFKVHTFRGPHWCEYCANFMWGLIAQGVKCADCGLNVHKQCSKMVPNDCKPDLKHVKKVYSCDLTTLVKAHITKRPMVVDMCIREIESRGLNSEGLYRVSGFSDLIEDVKMAFDRDGEKADISVNMYEDINIITGALKLYFRDLPIPLITYDAYPKFIESAKIMDPDEQLETLHEALRSLPPAHCETLRYLMAHLKRVTLHEKENLMSAENLGIVFGPTLMRSPELDPMAALNDIRYQRLVVELLIKNEDILF
binds | binds | binds | binds | – | – | – | HA-tagged wild-type α2-chimerin (pEF-BOS, HA-tag at the N-terminus) (protein, not shown: small tags and cut ends) MALTLFDTDEYRPPVWKSYLYQLQQEAPHPRRVTCTCEVENRPKYYGREYHGMISREETDQLLSVAEGSYLIRESQRQPGTYTLALRFGSQTRNFRLYYDGKHFVGEKRFESIHDLVTDGLITLYIETKAAEYIAKMTINPIYEHIGYTTLNREPAYKQHMAVLKETHDEKEATGQDGVSEKRLTSLVRRATLKENEQIPKYEKVHNFKVHTFRGPHWCEYCANFMWGLIAQGVKCADCGLNVHKQCSKMVPNDCKPDLKHVKKVYSCDLTTLVKAHITKRPMVVDMCIREIESRGLNSEGLYRVSGFSDLIEDVKMAFDRDGEKADISVNMYEDINIITGALKLYFRDLPIPLITYDAYPKFIESAKIMDPDEQLETLHEALRSLPPAHCETLRYLMAHLKRVTLHEKENLMSAENLGIVFGPTLMRSPELDPMAALNDIRYQRLVVELLIKNEDILF
– | – | – | – | – | – | binds | GST-fused full-length α2-chimerin (recombinant, from E. coli) (protein, mouse, UniProt Q91V57 1-459, looked up, not shown: a dimerising Fc or GST) MALTLFDTDEYRPPVWKSYLYQLQQEAPHPRRVTCTCEVENRPKYYGREYHGMISREETDQLLSVAEGSYLIRESQRQPGTYTLALRFGSQTRNFRLYYDGKHFVGEKRFESIHDLVTDGLITLYIETKAAEYIAKMTINPIYEHIGYTTLNREPAYKQHMAVLKETHDEKEATGQDGVSEKRLTSLVRRATLKENEQIPKYEKVHNFKVHTFRGPHWCEYCANFMWGLIAQGVKCADCGLNVHKQCSKMVPNDCKPDLKHVKKVYSCDLTTLVKAHITKRPMVVDMCIREIESRGLNSEGLYRVSGFSDLIEDVKMAFDRDGEKADISVNMYEDINIITGALKLYFRDLPIPLITYDAYPKFIESAKIMDPDEQLETLHEALRSLPPAHCETLRYLMAHLKRVTLHEKENLMSAENLGIVFGPTLMRSPELDPMAALNDIRYQRLVVELLIKNEDILF
binds | – | binds | – | – | – | – | HA-tagged mfy α2-chimerin (exon 9 deleted) (protein, not shown: small tags and cut ends) MALTLFDTDEYRPPVWKSYLYQLQQEAPHPRRVTCTCEVENRPKYYGREYHGMISREETDQLLSVAEGSYLIRESQRQPGTYTLALRFGSQTRNFRLYYDGKHFVGEKRFESIHDLVTDGLITLYIETKAAEYIAKMTINPIYEHIGYTTLNREPAYKQHMAVLKETHDEKEATGQDGVSEKRLTSLVRRATLKENEQIPKYEKVHNFKVHTFRGPHWCEYCANFMWGLIAQGVKCAGLNSEGLYRVSGFSDLIEDVKMAFDRDGEKADISVNMYEDINIITGALKLYFRDLPIPLITYDAYPKFIESAKIMDPDEQLETLHEALRSLPPAHCETLRYLMAHLKRVTLHEKENLMSAENLGIVFGPTLMRSPELDPMAALNDIRYQRLVVELLIKNEDILF
